# In article PMC12670160, “A drug-repurposing screen of FDA- and EMA-approved drugs identifies two NF-κB inhibitors active against eumycetoma” (Journal of Antimicrobial Chemotherapy, 2025):
# Where a name gives a salt, the structure may show the parent alone. Read-outs that look alike come from different tables or passages of the source. Among all 5,300 compounds or so, about 130 (2.5%) showed an effect of 50% or more. The list shows a part of the results.
# Tested on: M. mycetomatis strain mm55
# Conditions: primary screen, metabolic activity vs growth control, 96 h, 2 µM, inhibitor
SMILES,% viability [%],% viability (Madurella mycetomatis metabolic activity at 2µM (%)) [%]
"COc1cc(C(=O)NC2CCCNC2)cc(OC)c1OC (stereo not shown) [ONC0004799, troxipide]",108.6,
"CC(C)(S)C(N)C(=O)O (stereo not shown) [ONC0000482, penicillamine ethanolamine salt]",72.35,
"CN1CCC(COc2cnc(-c3cccc(Cn4nc(-c5cccc(C#N)c5)ccc4=O)c3)nc2)CC1 [ONC0002111, tepotinib]",69.09,
"O=S(=O)(N[C@H](CO)C(C(F)(F)F)C(F)(F)F)c1ccc(Cl)s1 [ONC0002115, begacestat]",92.91,
"CC(C)c1cc(C(=O)N2Cc3ccc(CN4CCN(C)CC4)cc3C2)c(O)cc1O [ONC0004868, onalespib at13387]",102.1,
"CC1Oc2cc(cnc2N)-c2c(nn(C)c2C#N)CN(C)C(=O)c2ccc(F)cc21 (stereo not shown) [ONC0005163, pf06463922]",67.6,
"CCOC(=O)C1=C[C@]2(CC)CCCN3CCc4c(n1c1ccccc41)[C@@H]32 [ONC0002865, vinpocetine]",109.8,
"Cc1ccnc2c1CCCC2C(N)=S (stereo not shown) [ONC0003697, isotiquimide]",106,
"CNCCC(Oc1ccccc1OC)c1ccccc1 (stereo not shown) [ONC0001641, nisoxetine]",70.74,
"CCOc1ccc(S(=O)(=O)O)c2cccnc12 [ONC0004189, actinoquinol sodium]",93.46,
"Cn1cnnc1Sc1c([N+](=O)[O-])ncn1C [ONC0003606, mnitmt]",130.1,
"Cc1cccc(CN2CCN(C(c3ccccc3)c3ccc(Cl)cc3)CC2)c1 (stereo not shown) [ONC0000457, meclizine hydrochloride]",74.07,
"COc1cnc(NS(=O)(=O)c2ccc(N)cc2)nc1 [ONC0000635, sulfameter]",120.1,
"O=C(O)CCn1c2c(c3ccccc31)C[C@H](NS(=O)(=O)c1ccc(F)cc1)CC2 [ONC0000918, ramatroban]",93.57,
"O=C(O)CCC(=O)Nc1ccc(S(=O)(=O)Nc2nccs2)cc1 [ONC0000581, succinylsulfathiazole]",107.1,
"O=C1N=C(NCc2cccs2)S/C1=C\c1ccc2ncccc2c1 [ONC0001760, ro3306]",79.85,
"CCCCCCCN(CC)CCCC(O)c1ccc(NS(C)(=O)=O)cc1 (stereo not shown) [ONC0004875, ibutilide fumarate]",79.19,
"C=C1C[C@]23C[C@@]1(O)CC[C@H]2[C@@]12C=C[C@H](O)[C@@](C)(C(=O)O1)[C@H]2[C@@H]3C(=O)O [ONC0003464, gibberellic acid]",70.49,
"Cn1cc(C=C2C(=O)Nc3cccnc32)c2ccccc21 [ONC0004257, gw441756]",60.77,
"CCOc1ccc(-c2nc(-c3cccc4c3CCC4NCCO)no2)cc1OCC (stereo not shown) [ONC0001502, cym5442]",91.21,

SMILES,% viability [%],% viability (Madurella mycetomatis metabolic activity at 2µM (%)) [%]
"Cn1c(=O)cc(N2CCC[C@@H](N)C2)n(Cc2ccccc2C#N)c1=O [ONC0005292, alogliptin benzoate]",73.26,
"CC1(C)S[C@@H]2[C@H](NC(=O)[C@H](NC(=O)N3CCN(S(C)(=O)=O)C3=O)c3ccccc3)C(=O)N2[C@H]1C(=O)O [ONC0004361, mezlocillin sodium]",94.17,
"CS(=O)(=O)CCNCc1nc(-c2ccc3ncnc(Nc4ccc(OCc5cccc(F)c5)c(Cl)c4)c3c2)cs1 [ONC0000149, gw583340]",73.7,
"N=C(N)/N=C(\N)N1CCOCC1 [ONC0005372, moroxydine hydrochloride]",114.7,
"C[N+](C)(C)NCCC(=O)[O-] [ONC0003642, meldonium]",57.83,
"COC(=O)NC(=S)Nc1ccccc1NC(=S)NC(=O)OC [ONC0002380, thiophanate methyl]",60.95,
"COc1ccc(-c2cc(=O)c3c(O)cc(O[C@@H]4O[C@H](CO[C@@H]5O[C@@H](C)[C@H](O)[C@@H](O)[C@H]5O)[C@@H](O)[C@H](O)[C@H]4O)cc3o2)cc1O [ONC0003167, diosmin]",94.36,
"CCCCNc1ncc2c(-c3ccc(CN4CCN(C)CC4)cc3)cn([C@H]3CC[C@H](O)CC3)c2n1 [ONC0001124, unc2025 hydrochloride]",69.33,
"COc1ccc(C(=O)c2ccc(C)cc2)c(O)c1 [ONC0005281, mexeneone]",59.35,
"CCCCCCCCCCCCCCCCCCCCCCCCCCCCO [ONC0002583, 1octacosanol]",52.64,
"O=C(O)CN1CCN(CC(=O)O)CCN(CC(=O)O)CCN(CC(=O)O)CC1 [ONC0005363, gadoteratemeglumine]",111.7,
"NC(=O)NC(=O)Cc1ccccc1 [ONC0000460, phenacemide]",68.16,
"COC1=C2C[C@@H](C)C[C@H](OC)[C@H](O)[C@@H](C)/C=C(\C)[C@H](OC(N)=O)[C@@H](OC)/C=C\C=C(/C)C(=O)NC(=CC1=O)C2=O [ONC0004394, geldanamycin]",128.8,
"CCCCC/N=c1/ccn(Cc2ccccc2)c2ccccc12 [ONC0001739, cp339818]",63.89,
"CCOC(=O)c1ncc2[nH]c3cccc(OC(C)C)c3c2c1C [ONC0001558, zk93426]",103.6,
"CCCCCCCCCCCCCCCC(=O)OC1C(SC)OC(C(NC(=O)C2CC(CCC)CN2C)C(C)Cl)C(O)C1O (stereo not shown) [ONC0004643, clindamycin palmitate hcl]",84.71,
"CNC(=O)Nc1ccc(-c2nc(N3CC4CCC(C3)O4)c3cnn(C4CCC5(CC4)OCCO5)c3n2)cc1 [ONC0004343, wye125132]",112.1,
"COC(=O)c1cc(OC)c2c(c1-c1c(CO)cc(OC)c3c1OCO3)OCO2 [ONC0002187, bicyclol]",70.1,
"COc1ccc(CNC(=O)c2cc(-c3cncc(C)c3)ncc2-c2nccs2)nc1OC [ONC0002387, mk3697]",94.77,
"CC(CN(C)C)CN1c2ccccc2Sc2ccccc21 (stereo not shown) [ONC0005525, trimeprazine]",,66.12

# In the list so far, these have an aryl methoxy group.
SMILES,% viability [%],% viability (Madurella mycetomatis metabolic activity at 2µM (%)) [%]
"COc1cc(C(=O)NC2CCCNC2)cc(OC)c1OC (stereo not shown) [ONC0004799, troxipide]",108.6,
"CNCCC(Oc1ccccc1OC)c1ccccc1 (stereo not shown) [ONC0001641, nisoxetine]",70.74,
"COc1cnc(NS(=O)(=O)c2ccc(N)cc2)nc1 [ONC0000635, sulfameter]",120.1,
"COc1ccc(-c2cc(=O)c3c(O)cc(O[C@@H]4O[C@H](CO[C@@H]5O[C@@H](C)[C@H](O)[C@@H](O)[C@H]5O)[C@@H](O)[C@H](O)[C@H]4O)cc3o2)cc1O [ONC0003167, diosmin]",94.36,
"COc1ccc(C(=O)c2ccc(C)cc2)c(O)c1 [ONC0005281, mexeneone]",59.35,
"COC(=O)c1cc(OC)c2c(c1-c1c(CO)cc(OC)c3c1OCO3)OCO2 [ONC0002187, bicyclol]",70.1,
"COc1ccc(CNC(=O)c2cc(-c3cncc(C)c3)ncc2-c2nccs2)nc1OC [ONC0002387, mk3697]",94.77,
